# Source: patent US20210361774A1, “DEGRADERS OF WILD-TYPE AND MUTANT FORMS OF LRRK2” (DANA-FARBER CANCER INSTITUTE, INC., priority 2018, published 2021)
# At least one structure is not confirmed: it was looked up by name or label, or the drawing left a doubt.
# Key:
# Format in all cases: cell-based, Mouse
# Details in all cases: time course, 0 nM-1000 nM
# LRRK2 = experiment: Cellular degradation of LRRK2, Western blot in MEFs
# Description: (§1) Cell lines used: Mouse embryonic fibroblast (MEF) WT, LRRK2 homozygous knock-ins in MEFs [R1441C; VPS35N(D620N); G2019S].
# (§2) Tested concentration of LRRK2 degraders: 0 nM, 10 nM, 30 nM, 100 nM, 300 nM, 1000 nM. Additional concentrations tested for inventive compound 3: 2 uM, 5 uM and 10 uM.
# (§3) Complete growth medium: DMEM supplemented with: 10% Fetal Bovine Serum; 1% pen/strep; 1% L-Glutamine; 1% MEM Non-essential Amino Acid Solution; 1% sodium pyruvate.
# (§4) Commercial and in-house purified antibodies: • (a) Mouse anti-LRRK2/Dardarin antibody from Antibodies, Inc. (Cat #75-253). • (b) Rabbit monoclonal antibodies for total LRRK2 (UDD3) and pS935-LRRK2 (UDD2) were purified at the University of Dundee (as described in Dzamko et al., PLoS One 7(6): e39132 (2012). • (c) Loading controls: anti-α-tubulin (Cell Signaling Technology #5174); anti-GAPDH (Santa Cruz Biotechnology Cat. #sc-32233) • (d) (p)Rab10 antibodies: rabbit anti-RAB10 (phospho T73) antibody [MJF-R21] (ab230261); mouse MJFF-total Rab10 monoclonal antibody were generated by nanoTools (www.nanotools.de); rabbit Rab10 total was from Cell Signaling Technology (Rab10 (D36C4) XP® Rabbit mAb #8127)
# (§5) Treatment: WT MEF, R1441C, VPS35N and G2019S mutants' cells were plated at equal density into 6-well plates in a final volume of 3 mL of complete growth medium/well. Degraders were reconstituted in DMSO and used at 1:1000 in cells i.e. 3 μl/3 ml. Treatment began when cells were >60% confluent, starting from a 48-hour time point, followed by a 24-hour time point, a 6-hour time point and finally a 1-hour time point.
# Cell lysis: Media were aspirated, plates were placed on ice and cells were washed with Dulbecco's phosphate-buffered saline (DPBS). Fifty microliters of an ice-cold lysis buffer containing 50 mM Tris-HCl, pH 7.5, 1% (v/v) Triton X-100, 1 mM ethylene glycol-bis(μ-aminoethyl ether)-N,N,N′,N′-tetraacetic acid (EGTA), 1 mM sodium orthovanadate, 50 mM NaF, 0.1% (v/v) 2-mercaptoethanol, 10 mM 2-glycerophosphate, 5 mM sodium pyrophosphate, 0.1 μg/ml microcystin-LR (Enzo Life Sciences), 270 mM sucrose and complete EDTA-free protease inhibitor cocktail (Sigma-Aldrich Cat #11836170001) was added per well. Lysates were centrifuged at 20,817 g (14,000 rpm) for 15 min at 4° C. and supernatants were used to determine protein concentration using Bradford assay (Pierce™ Coomassie (Bradford) Protein Assay Kit, Thermo Scientific™ Cat #23200) and for Western blot analysis.
# Western blot analysis: Cell lysates were mixed with 4× SDS-PAGE sample buffer [50 mM Tris-HCl, pH 6.8, 2% (w/v) SDS, 10% (v/v) glycerol, 0.02% (w/v) Bromophenol Blue and 1% (v/v) 2-mercaptoethanol] to a final total protein concentration of 1 μg/μl and heated at 95° C. for 5 minutes. Twenty micrograms of samples were loaded onto NuPAGE™ 4-12% Bis-Tris gradient gels (Life Technologies) along with 3 μl of BIO-RAD protein marker (Precision Plus Protein™ All Blue Prestained Protein Standards #1610373 kDa), gels were run in duplicates at 110V for 2 hours and 30 minutes with the NuPAGE™ MOPS SDS running buffer (Life Technologies, Cat #NP0001-02). After electrophoresis, the separated proteins were transferred onto the nitrocellulose membrane (GE Healthcare, Amersham Protran 0.45 μm NC) at 90 V for 90 minutes. Transferred membranes were briefly stained with Ponceau S stain and divided into 3 strips, as described earlier in Fan et al., Biochem. J. 475:23-44 (2018). Briefly, upper strip was cut from the top of the membrane to 75 kDa, middle strip cut was between 75 kDa—30 kDa and bottom strip cut was from 30 kDa—to the bottom of the membrane. Membrane strips were blocked at room temperature with 5% (w/v) dried skimmed milk dissolved in TBS-T [20 mM Tris-HCl, pH 7.5, 150 mM NaCl and 0.1% (v/v) Tween® 20] for 1 hour, washed four times with ten minutes intervals in TBS-T and incubated with primary antibodies diluted in 5% BSA (bovine serum albumin) in TBS-T overnight at 4° C. […]
# Rab10 (phospho T73) = experiment: Inhibition of phosphorylation of Rab10, Western blot in MEFs
# Description: as §1, §2, §3, §4, §5
# (§6) Cell lysis: Media were aspirated, plates were placed on ice and cells were washed with Dulbecco's phosphate-buffered saline (DPBS). […]
# LRRK2 pS935 = experiment: Inhibition of phosphorylation of S935, Western blot in MEFs
# Description: as §1, §2, §3, §4, §5, §6
Structure (SMILES),degradation of LRRK2 (C-terminus) (LRRK2),degradation of LRRK2 (N-terminus) (LRRK2),inhibition of phosphorylation of Rab10 (Rab10 (phospho T73)),inhibition of phosphorylation of S935 (LRRK2 pS935)
"CNc1nc(Nc2ccc(C(=O)N3CCN(CCOCCOCCOCCNc4cccc5c4C(=O)N(C4CCC(=O)NC4=O)C5=O)CC3)cc2OC)ncc1Cl (stereo not drawn) [Compound 4, 4-((2-(2-(2-(2-(4-(4-((5-chloro-4-(methylamino)pyrimidin-2-yl)amino)-3-methoxybenzoyl)piperazin-1-yl)ethoxy)ethoxy)ethoxy)ethyl)amino)-2-(2,6-dioxopiperidin-3-yl)isoindoline-1,3-dione]",degraded,not observed,inhibited,not observed
"CNc1nc(Nc2ccc(C(=O)N3CCN(CCOCCOCCOCCOCCNc4cccc5c4C(=O)N(C4CCC(=O)NC4=O)C5=O)CC3)cc2OC)ncc1Cl (stereo not drawn) [Compound 6, 4-((14-(4-(4-((5-chloro-4-(methylamino)pyrimidin-2-yl)amino)-3-methoxybenzoyl)piperazin-1-yl)-3,6,9,12-tetraoxatetradecyl)amino)-2-(2,6-dioxopiperidin-3-yl)isoindoline-1,3-dione]",degraded,not observed,inhibited,not observed
"CNc1nc(Nc2ccc(C(=O)N3CCN(CCOCCOCCOCCOCCNc4cccc5c4C(=O)N(C4CCC(=O)NC4=O)C5=O)CC3)cc2OC)ncc1C(F)(F)F (stereo not drawn) [Compound 7, 2-(2,6-dioxopiperidin-3-yl)-4-((14-(4-(3-methoxy-4-((4-(methylamino)-5-(trifluoromethyl)pyrimidin-2-yl)amino)benzoyl)piperazin-1-yl)-3,6,9,12-tetraoxatetradecyl)amino)isoindoline-1,3-dione]",degraded,not observed,inhibited,inhibited
